This is one part of the list. Most values lie at the level of the controls, where differences are scatter. Where a SMILES comes first, the peptide text is derived from it. [ ]: non-standard residue; d: D form.
System: hPSC-derived cortical neurons (WA09)
Assay: total neurite length per nucleus (MAP2) z-score; higher = more neurite growth
Settings: 5 µM; treatment: days 7-14 after plating, readout day 21

| SMILES | total neurite length per nucleus (z-score) |
| --- | --- |
| CC(=O)O[C@H]1C(=O)[C@@]2(C)[C@H]([C@H](OC(=O)c3ccccc3)[C@]3(O)C[C@H](OC(=O)[C@H](O)[C@@H](NC(=O)c4ccccc4)c4ccccc4)C(C)=C1C3(C)C)[C@]1(OC(C)=O)CO[C@@H]1C[C@@H]2O [Paclitaxel] | 5.16 |
| CCCNC(=O)c1cn2ncnc(Nc3cc(C(=O)NC4CC4)ccc3C)c2c1C | 1.28 |
| Cn1ncc(Cl)c1-c1cc(C(=O)N[C@H](CN)Cc2cccc(F)c2)sc1Cl | -2.48 |
| O=S(=O)(N=Cc1c(O)ccc2ccccc12)c1cccs1 | 0.155 |
| CC(=O)O[C@]1(C(C)=O)CC[C@H]2[C@@H]3C[C@H](C)C4=CC(=O)CC[C@]4(C)[C@H]3CC[C@@]21C [Medroxyprogesterone acetate] | 0.574 |
| CN1CC(=O)NC1=N [Creatinine] | 0.22 |
| O=S(=O)(O)c1cc(O)ccc1O [Ethamsylate] | -1.49 |
| Nc1cccc2c1C(=O)N(C1CCC(=O)NC1=O)C2=O (configuration not stated) [Pomalidomide] | 1.26 |
| CCCCCCCCCCCCCCCCCCOP(=O)([O-])OC1CC[N+](C)(C)CC1 [Perifosine (KRX-0401)] | -0.0372 |
| CC(C)C[C@@H]1NC(=O)[C@@H](C(C)C)NC(=O)[C@@H]2CCCN2C(=O)[C@@H](CC(=O)O)NC(=O)[C@@H](Cc2c[nH]c3ccccc23)NC1=O (cyclo(L[dW][dD]P[dV])) | 0.573 |
| Fc1ccc(Cl)cc1-c1nc(Nc2ccncc2)c2nccnc2n1 | -1.33 |
| CCC[C@H](N[C@H]1CCc2cc(F)cc(F)c2C1)C(=O)Nc1cn(C(C)(C)CNCC(C)(C)C)cn1 | -1.52 |

— the supplement of paper PMC11348887
